Test results as given in patent publication US10821125B2, “Composition comprising FUT2-dependent oligosaccharides and lacto-N-neotetraose for use in promoting brain development and cognition” (NESTEC S.A., priority 2014, dated 2020).

Assay: Oligosaccharide levels in whole breast milk of healthy mothers with low and high Fut2 activity (HPAEC-PAD)
Parameters: species or system human
Conditions: for concentration in breast milk, high Fut2 activity group compared to low Fut2 activity group: at 30, 60 and 120 days post partum, t-test; for change of concentration in human breast milk with time: determined at 30, 60 and 120 days after infants' birth; for natural levels in the breast milk of mothers with high Fut2 activity: high Fut2 activity = 2′Fucosyllactose above 0.2 g/L
Procedure: An open, single-centre, 1 group study was conducted including 50 subjects (mothers) lasting 4 months. Only healthy volunteers were included.
All subjects complied with all the following inclusion criteria: 1. Gestational age between 37 and not above 42 weeks, 2. Baby to be enrolled between birth and V1, 3. Mother not younger than 18 years and not older than 40 years of age, 4. pre-pregnancy BMI of the mother between 18.5-29.5. Mothers willing to breastfeed for the first 4 months after giving birth.
Analysis of oligosaccharides (2′Fucosyllactose and Lacto-N-Neotetraose) was conducted in duplicates on a 10 mL sample of whole breast milk fully expressed mature milk, corresponding to a complete feed, and taken after 30, 60 and 120 days after infants' birth (post partum).
Briefly, 1 mL of well mixed whole breast milk was centrifuged for 20 min at 1700×g. About 0.1 mL of skimmed milk supernatant was diluted 10× with water and 0.01 mL of the thus diluted supernatant were taken as a sample for analysis.
Samples were analyzed by high performance ion exchange chromatography (HPAEC; Thermo, Dionex, Ca) equipped with a CarboPac PA1 column (Thermo, Dionex, Ca) for separation and a pulsed amperometric detector (PAD) for detection of carbohydrates. Oligosaccharide identification was done based on comparison of retention times to authentic standards and enzymatic hydrolysis of samples (e.g. fucosidase, galactosidase). Oligosaccharide quantification was done using external standard curves with pure authentic oligosaccharides.
Data collection points were 30, 60 and 120 days after infants' birth. Means with standard deviation were calculated for 2′Fucosyllactose (2′FL) and Lacto-N-neotetraose levels measured in breast milk grouped into samples with (i) low Fut2 activity (<0.2 g/L 2′FL) and (ii) high Fut2 activity (>0.2 g/L 2′FL). Statistical difference of 2′FL and LNnT levels between the two groups was assessed by t-test.
6′Sialyllactose (6′SL) and 3′Sialyllactose (3′SL) levels were determined in the breast milk from healthy mothers with low Fut2 activity (<0.2 g/L 2′FL) and high FUT2 activity (>0.2 g/L 2′FL) at 30, 60 and 120 days after infants' birth.
In particular, analysis of 6′Sialyllactose (6′SL) and 3′Sialyllactose (3′SL) was conducted in duplicates on a 10 mL sample of whole breast milk fully expressed mature milk, corresponding to a complete feed, and taken after 30, 60 and 120 days after infants' birth (post partum).
Means with standard deviation were calculated for 6′Sialyllactose (6′SL) and 3′Sialyllactose (3′SL) levels measured in breast milk grouped into samples with (i) low Fut2 activity (<0.2 g/L 2′FL) and (ii) high Fut2 activity (>0.2 g/L 2′FL). Statistical difference of 2′FL and LNnT levels between the two groups was assessed by t-test.

[1] = high FUT2 activity (2′FL>0.2 g/L), 30 days post partum
[2] = high FUT2 activity (2′FL>0.2 g/L), 60 days post partum
[3] = high FUT2 activity (2′FL>0.2 g/L), 120 days post partum
[4] = low FUT2 activity (2′FL<0.2 g/L), 60 days post partum

Row | Structure (SMILES) | concentration in breast milk, high Fut2 activity group compared to low Fut2 activity group | change of concentration in human breast milk with time | level in breast milk, mean [1] | level in breast milk, mean [2] | level in breast milk, mean [3] | natural levels in the breast milk of mothers with high Fut2 activity | level in breast milk, mean (low FUT2 activity (2′FL<0.2 g/L), 30 days post partum) | level in breast milk, mean [4] | level in breast milk, mean (low FUT2 activity (2′FL<0.2 g/L), 120 days post partum) | level in breast milk, mean (high FUT2 activity (2′FL>0.2 g/L), 30 days post partum, listed as 2′Fucosyllactose) | level in breast milk, mean (high FUT2 activity (2′FL>0.2 g/L), 60 days post partum, listed as 2′Fucosyllactose) | level in breast milk, mean (high FUT2 activity (2′FL>0.2 g/L), 120 days post partum, listed as 2′Fucosyllactose)
1 | CC(=O)N[C@H]1[C@H](O[C@H]2[C@@H](O)[C@@H](CO)O[C@@H](O[C@H]3[C@H](O)[C@@H](O)C(O)O[C@@H]3CO)[C@@H]2O)O[C@H](CO)[C@@H](O[C@@H]2O[C@H](CO)[C@H](O)[C@H](O)[C@H]2O)[C@@H]1O (mixture of isomers) [LNnT, Lacto-N-Neotetraose] | significantly higher | decreases with time | 0.26 g/L | 0.17 g/L | 0.11 g/L | up to 0.6 g/L | 0.19 g/L | 0.11 g/L | 0.07 g/L |  |  | 
2 | C[C@@H]1O[C@@H](O[C@H]2[C@H](O[C@H]3[C@H](O)[C@@H](O)C(O)O[C@@H]3CO)O[C@H](CO)[C@H](O)[C@@H]2O)[C@@H](O)[C@H](O)[C@@H]1O (stereo partly shown) [2′FL, 2′Fucosyllactose] |  | decreases with time | 2.2 g/L | 1.8 g/L | 1.4 g/L | up to 5 g/L |  | 0.02 g/L |  | about 2.2 g/L | about 1.8 g/L | about 1.4 g/L
3 | CC(=O)N[C@H]1[C@H]([C@H](O)[C@H](O)CO)O[C@@](O[C@H]2[C@@H](O)[C@@H](CO)O[C@@H](O[C@H]3[C@H](O)[C@@H](O)C(O)O[C@@H]3CO)[C@@H]2O)(C(=O)O)C[C@@H]1O (stereo partly shown) [3′SL, 3′Sialyllactose] | no significant differences | decreases with time |  |  |  |  |  |  |  |  |  | 
4 | CC(=O)N[C@H]1[C@H]([C@H](O)[C@H](O)CO)O[C@@](OC[C@H]2O[C@@H](O[C@H]3[C@H](O)[C@@H](O)[C@H](O)O[C@@H]3CO)[C@H](O)[C@@H](O)[C@H]2O)(C(=O)O)C[C@@H]1O [6′SL, 6′Sialyllactose] | no significant differences | decreases with time |  |  |  |  |  |  |  |  |  | 
